According to patent US20250129178A1:
No constants are given. Whether binding was seen depends on the method and setting. Some entries that bind do so weakly or less than the wild type.

Amino acid sequences for entries named in this document (tags omitted). A change or cut given only in a name is not applied to a line headed by its entry. Chains listed by the source or under a name are the forms on record and can include a tag or linker.
mesothelin protein (Acrobiosystems, cat #MSN-H5223) (Q13421, form named): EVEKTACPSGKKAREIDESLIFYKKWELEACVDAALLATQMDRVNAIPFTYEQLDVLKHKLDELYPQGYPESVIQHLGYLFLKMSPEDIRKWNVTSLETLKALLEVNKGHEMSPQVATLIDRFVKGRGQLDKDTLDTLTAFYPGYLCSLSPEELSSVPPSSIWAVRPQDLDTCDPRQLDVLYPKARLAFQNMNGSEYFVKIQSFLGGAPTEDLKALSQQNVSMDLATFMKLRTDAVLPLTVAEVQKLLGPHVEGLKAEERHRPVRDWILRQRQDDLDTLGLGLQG

B1: 4G11 antibody (antibody, V domains shown)
VH: EVQLQQSGPELVKTGDSVKISCKASGYSFTGYYMHWVKQSHGKSLEWIGYISCYNGATSYSQKFKGKATFTVDTSSSTAYMQFNSLTSEDSAVYYCARWDRDWFAYWGQGTLVTVSA
VL: DIVMTQSHKFMSTSVGDRVSITCKASQDVGIAVAWYQQKPGQSPKLLIYWASTRHTGVPDRFTGSGSGTDFTLTISNVQSEDLADYFCQQYSSYPFTFGSGTKLEIK
B2: 5A9 antibody (antibody, V domains shown)
VH: EVQLEESGPAVIKPSQSLSLTCIVSGFSITSSSYCWHWIRQPPGKGLEWMGRICYEGSIYYSPSIKSRFTISRDTSLNKFFIQLSSVTNEDTAMYYCSRENRLLKDAMDYWGQGTSVTVSS
VL: DIVMTQSPSSLAVSAGEKVTMSCKSSQSLLSSRTRKNYLAWYQQKPGQSPKLLIYWASTRESGVPDRFTGSGSGTDFTLTISSVQAEDLAVYYCKQSYNLRTFGGGTKLEIK
B3: 9E11 antibody (antibody, V domains shown)
VH: QVQLKESGPGLVKPSQSLSLTCTVTGYSITSDYAWNWIRQFPGNKLEWMGYISYSGSTRYNPSLKSRISITRDTSKNQFFLQLNSVTTEDTATYYCARGAAGFAYWGQGTLVTVSA
VL: DIVMTQSPASQSASLGESVTITCLASQTIGTWLAWYQQKPGKSPQLLIYAATSLADGVPSRFSGSGSGTEFSFKISSLQAEDFVSYYCQQLYSTPWTFGGGTKLEIK

Target: mesothelin protein (Acrobiosystems, cat #MSN-H5223) (UniProt Q13421)
Assay: screening ELISA of hybridoma clones

Row | Binder | binding
1 | B1 | binds
2 | B2 | binds
3 | B3 | binds

Target: mesothelin protein (Acrobiosystems, cat #MSN-H5223) (UniProt Q13421)
Assay: ELISA on coated mesothelin peptide

Row | Binder | binding
4 | B1 | binds
5 | B2 | binds
6 | B3 | binds
